Where “and” joins values, the source holds several entries; their conditions need not be identical. Equal entries are not always repeated. Hit rate of the full screen: of about 580,000 compounds, about 6,100 (1.1%) were called active. Inconclusive means that the source gave no clear call. Such entries were picked first, then a sample of the others. Calls come from the whole dose curve; as a rule, active = well fitted inhibition curve with a large enough effect; inconclusive = small, poorly fitted or top-dose-only effect, or another doubt; inactive = no such curve, though single readings can be large or run the other way. Where the call is inconclusive, the potency comes from a doubtful curve fit.
Target: Polyunsaturated fatty acid lipoxygenase ALOX12 (Homo sapiens) (UniProt P18054)
Assay: Primary qHTS assay for inhibitors of human arachidonate 12S-lipoxygenase (ALOX12): Round 2
Conditions: purified 12hLO, xylenol orange hydroperoxide absorbance; series mostly up to 108 µM
Outline: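 Purified human 12hLO at 150 nM in 25 mM Hepes, 0.01% Triton X-100, pH 7.0, preincubated 15 min at room temperature with compound. Reaction started with 40 uM arachidonic acid, 30 min at room temperature. Hydroperoxide measured by Fe-xylenol orange, 573/405 nm absorbance ratio.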
Potency is the fitted concentration of half-maximal effect.

By UniProt entry, the sequences of proteins in these tests, tags left out. Where a name states a change or a piece, a line headed by the entry shows the natural chain unless it says otherwise.
UniProt P18054: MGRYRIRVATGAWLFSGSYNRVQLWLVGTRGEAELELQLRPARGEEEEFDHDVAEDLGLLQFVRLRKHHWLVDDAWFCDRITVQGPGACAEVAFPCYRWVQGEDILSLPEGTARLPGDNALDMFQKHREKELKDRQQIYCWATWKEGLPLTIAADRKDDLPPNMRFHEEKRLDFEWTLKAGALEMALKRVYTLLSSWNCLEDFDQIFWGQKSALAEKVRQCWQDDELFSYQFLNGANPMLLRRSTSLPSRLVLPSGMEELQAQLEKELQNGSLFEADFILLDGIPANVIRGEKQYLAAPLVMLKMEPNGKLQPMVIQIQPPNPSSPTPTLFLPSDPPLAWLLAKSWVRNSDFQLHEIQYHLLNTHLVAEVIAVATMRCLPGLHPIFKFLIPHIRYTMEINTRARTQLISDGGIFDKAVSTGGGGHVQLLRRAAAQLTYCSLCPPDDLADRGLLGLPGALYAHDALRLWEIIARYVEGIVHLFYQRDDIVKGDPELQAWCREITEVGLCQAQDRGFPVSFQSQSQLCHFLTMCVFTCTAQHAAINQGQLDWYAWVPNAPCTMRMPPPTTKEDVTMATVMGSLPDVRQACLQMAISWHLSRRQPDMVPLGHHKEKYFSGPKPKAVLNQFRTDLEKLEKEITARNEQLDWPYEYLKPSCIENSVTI

SMILES | Potency
c1nc2sc3c(c2c2nnnn12)CCC3 | inconclusive: 11.2 µM [inhibitor, partial curve, poor fit]
Cc1ccc(NC(=O)CN2C(=O)c3ccccc3Sc3ccc(C(=O)N4CCOCC4)cc32)c(Cl)c1 | inconclusive: 89.1 µM [inhibitor, partial curve, poor fit]
COc1ccc(NC(=O)CCC(=O)c2ccc(Cl)cc2)cn1 | inconclusive: 70.8 µM [inhibitor, partial curve, poor fit]
O=[N+]([O-])c1ccc(Oc2cccc(Br)c2)c2ccncc12 | inactive
CCN(CC)C(=O)C1CCCN(Cc2ccccc2C(F)(F)F)C1 (configuration not stated) | inconclusive: 0.398 µM [inhibitor, full curve, poor fit]
COC1=C/C(=C/c2c(N)n3nc(-c4ccc(C)cc4)sc3nc2=O)C=CC1=O | inconclusive: 39.8 µM [inhibitor, partial curve]
CC(C)C(NC/C=C/c1ccccc1)C(=O)O (configuration not stated) | inconclusive: 1.58 µM [inhibitor, full curve]
CSc1ccc(C(=O)O)s1 | inconclusive: 112 µM [inhibitor, single point]
NS(=O)(=O)c1ccc(Nc2nc(-c3ccccc3)cs2)cc1 | inconclusive: 89.1 µM [inhibitor, partial curve, poor fit] and inconclusive: 44.7 µM [inhibitor, partial curve, poor fit]
O=C(O)c1cc([N+](=O)[O-])ccc1NCc1cccnc1 | inconclusive: 39.8 µM [inhibitor, partial curve, poor fit]
CCN(CC)CCNc1nc(C)c2c(c1C#N)CCCC2 | inconclusive: 112 µM [inhibitor, single point]
O=C(c1cccc2[nH]ccc12)N1CCCC(n2cc(-c3nc(C4CC4)no3)nn2)C1 (configuration not stated) | inactive
CCOc1ccccc1N1Cc2cc(C)c(C)cc2C1 | inconclusive: 44.7 µM [inhibitor, partial curve, poor fit]
COc1cc(NC(=O)CSc2nccc(=O)[nH]2)c(C)cc1[N+](=O)[O-] | inconclusive: 50.1 µM [inhibitor, partial curve, poor fit]
CCOc1ccccc1C(=O)N1CCCC2(C1)NC(=O)N(Cc1ccc(Cl)cc1)C2=O (configuration not stated) | inconclusive: 31.6 µM [inhibitor, full curve]
CCOCCCNC(=O)COC(=O)/C=C/c1ccc(S(=O)(=O)N2CCc3ccccc32)cc1 | inconclusive: 89.1 µM [inhibitor, partial curve, poor fit]
O=C(COC(=O)c1c2c(nc3ccccc13)/C(=C/c1ccco1)CC2)NC1CCCC1 | active: 25.1 µM

A different layout for four compounds above.
SMILES,Potency
COc1ccc(NC(=O)CCC(=O)c2ccc(Cl)cc2)cn1,"inconclusive: 70.8 µM [inhibitor, partial curve, poor fit]"
O=[N+]([O-])c1ccc(Oc2cccc(Br)c2)c2ccncc12,inactive
CCN(CC)C(=O)C1CCCN(Cc2ccccc2C(F)(F)F)C1 (configuration not stated),"inconclusive: 0.398 µM [inhibitor, full curve, poor fit]"
COC1=C/C(=C/c2c(N)n3nc(-c4ccc(C)cc4)sc3nc2=O)C=CC1=O,"inconclusive: 39.8 µM [inhibitor, partial curve]"

Source: PubChem BioAssay AID1671190 (National Center for Advancing Translational Sciences (NCATS), 2021)
